In publication PMC8572224:
These are yes or no findings as the source states them, for the method shown. Binding seen in cells or lysates may run through a third protein. Some binding calls cover weakened binding; strength is not graded here.

Sequences of proteins named here, by UniProt entry; tags and fusion partners are left off.
UniProt Q96PU5: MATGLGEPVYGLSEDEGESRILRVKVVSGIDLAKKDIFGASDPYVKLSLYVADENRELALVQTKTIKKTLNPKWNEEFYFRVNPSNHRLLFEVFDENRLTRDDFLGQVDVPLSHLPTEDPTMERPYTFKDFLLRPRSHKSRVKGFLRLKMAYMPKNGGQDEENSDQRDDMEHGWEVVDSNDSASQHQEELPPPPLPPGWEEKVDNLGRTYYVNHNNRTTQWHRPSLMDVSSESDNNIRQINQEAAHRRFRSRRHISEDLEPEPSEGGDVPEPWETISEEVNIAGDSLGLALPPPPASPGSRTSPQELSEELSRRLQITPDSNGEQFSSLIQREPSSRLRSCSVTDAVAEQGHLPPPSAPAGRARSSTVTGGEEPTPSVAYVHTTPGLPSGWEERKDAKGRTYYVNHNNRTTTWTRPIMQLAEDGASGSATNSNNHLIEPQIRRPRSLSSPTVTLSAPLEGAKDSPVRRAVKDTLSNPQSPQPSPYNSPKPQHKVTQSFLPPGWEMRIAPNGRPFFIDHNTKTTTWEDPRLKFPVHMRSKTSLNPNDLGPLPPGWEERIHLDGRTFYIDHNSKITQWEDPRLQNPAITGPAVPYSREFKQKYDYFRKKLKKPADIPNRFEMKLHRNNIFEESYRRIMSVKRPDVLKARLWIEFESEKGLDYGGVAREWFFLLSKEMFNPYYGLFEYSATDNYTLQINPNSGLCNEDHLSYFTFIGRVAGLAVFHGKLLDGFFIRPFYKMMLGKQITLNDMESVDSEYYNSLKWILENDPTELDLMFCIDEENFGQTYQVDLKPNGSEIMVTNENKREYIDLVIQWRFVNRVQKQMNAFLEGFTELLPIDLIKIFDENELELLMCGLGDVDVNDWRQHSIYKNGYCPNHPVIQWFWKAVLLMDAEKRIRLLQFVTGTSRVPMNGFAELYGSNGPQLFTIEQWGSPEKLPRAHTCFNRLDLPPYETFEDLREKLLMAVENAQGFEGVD

Molecular target: Neural precursor cell expressed developmentally downregulated 4-like (NEDD4L), endogenous (human (endogenous in A549, H1299, SPC-A1)) (UniProt Q96PU5)
Assay: co-IP; endogenous proteins in lysates of A549, H1299 and SPC-A1 cells; antibody used to precipitate not given

binding: binds
B1: CPNE1 (copine 1), endogenous (protein, UniProt Q99829 1-537)
chain: MAHCVTLVQLSISCDHLIDKDIGSKSDPLCVLLQDVGGGSWAELGRTERVRNCSSPEFSKTLQLEYRFETVQKLRFGIYDIDNKTPELRDDDFLGGAECSLGQIVSSQVLTLPLMLKPGKPAGRGTITVSAQELKDNRVVTMEVEARNLDKKDFLGKSDPFLEFFRQGDGKWHLVYRSEVIKNNLNPTWKRFSVPVQHFCGGNPSTPIQVQCSDYDSDGSHDLIGTFHTSLAQLQAVPAEFECIHPEKQQKKKSYKNSGTIRVKICRVETEYSFLDYVMGGCQINFTVGVDFTGSNGDPSSPDSLHYLSPTGVNEYLMALWSVGSVVQDYDSDKLFPAFGFGAQVPPDWQVSHEFALNFNPSNPYCAGIQGIVDAYRQALPQVRLYGPTNFAPIINHVARFAAQAAHQGTASQYFMLLLLTDGAVTDVEATREAVVRASNLPMSVIIVGVGGADFEAMEQLDADGGPLHTRSGQAAARDIVQFVPYRRFQNAPREALAQTVLAEVPTQLVSYFRAQGWAPLKPLPPSAKDPAQAPQA
